Measurements from the supplement of paper PMC12823440, “Inhibitors supercharge kinase turnover through native proteolytic circuits” (Nature, 2025).
The list shows a part of the results. Hit calls seldom repeat between salt and free forms of one compound.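 Kinases, fused to nanoluciferase, were expressed in K562 cells; luminescence was measured every 4 h from 2 to 18 h as percent of control (DMSO = 100%, positive control = 0%). A time point is decreased if signal falls significantly (2 sigma). Hits were called by the authors by a rule that is not shown; the count of time points alone does not decide it.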

Sequences of proteins named here, by UniProt entry; tags and fusion partners are left off. A change or cut given only in a name is not applied to a line headed by its entry.
UniProt P48729: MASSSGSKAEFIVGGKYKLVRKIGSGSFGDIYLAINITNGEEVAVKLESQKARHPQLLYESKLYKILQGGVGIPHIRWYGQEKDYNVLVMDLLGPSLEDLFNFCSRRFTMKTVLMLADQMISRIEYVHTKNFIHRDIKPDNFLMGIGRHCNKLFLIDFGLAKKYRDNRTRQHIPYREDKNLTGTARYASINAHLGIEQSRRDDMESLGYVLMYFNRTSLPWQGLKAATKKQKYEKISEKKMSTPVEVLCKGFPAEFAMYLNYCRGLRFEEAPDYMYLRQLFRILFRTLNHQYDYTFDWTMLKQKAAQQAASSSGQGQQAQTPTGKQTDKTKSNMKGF
UniProt Q9Y463, whole entry, looked up: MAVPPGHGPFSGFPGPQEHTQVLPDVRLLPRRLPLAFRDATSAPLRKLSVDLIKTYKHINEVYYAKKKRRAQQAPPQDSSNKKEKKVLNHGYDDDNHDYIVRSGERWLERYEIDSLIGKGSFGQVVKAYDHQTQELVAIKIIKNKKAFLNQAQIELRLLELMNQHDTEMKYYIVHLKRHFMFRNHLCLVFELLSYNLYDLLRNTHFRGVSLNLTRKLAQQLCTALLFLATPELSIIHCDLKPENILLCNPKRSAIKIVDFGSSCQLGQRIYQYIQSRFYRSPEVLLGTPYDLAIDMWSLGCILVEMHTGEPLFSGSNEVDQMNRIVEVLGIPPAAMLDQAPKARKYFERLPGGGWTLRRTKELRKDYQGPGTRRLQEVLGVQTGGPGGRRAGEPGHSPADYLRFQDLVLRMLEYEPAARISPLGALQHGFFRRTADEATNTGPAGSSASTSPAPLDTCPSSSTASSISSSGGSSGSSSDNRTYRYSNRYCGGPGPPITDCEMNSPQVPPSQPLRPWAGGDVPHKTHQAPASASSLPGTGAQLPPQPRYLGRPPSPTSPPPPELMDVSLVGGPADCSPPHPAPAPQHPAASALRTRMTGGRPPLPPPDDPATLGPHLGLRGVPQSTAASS
UniProt P29317, whole entry: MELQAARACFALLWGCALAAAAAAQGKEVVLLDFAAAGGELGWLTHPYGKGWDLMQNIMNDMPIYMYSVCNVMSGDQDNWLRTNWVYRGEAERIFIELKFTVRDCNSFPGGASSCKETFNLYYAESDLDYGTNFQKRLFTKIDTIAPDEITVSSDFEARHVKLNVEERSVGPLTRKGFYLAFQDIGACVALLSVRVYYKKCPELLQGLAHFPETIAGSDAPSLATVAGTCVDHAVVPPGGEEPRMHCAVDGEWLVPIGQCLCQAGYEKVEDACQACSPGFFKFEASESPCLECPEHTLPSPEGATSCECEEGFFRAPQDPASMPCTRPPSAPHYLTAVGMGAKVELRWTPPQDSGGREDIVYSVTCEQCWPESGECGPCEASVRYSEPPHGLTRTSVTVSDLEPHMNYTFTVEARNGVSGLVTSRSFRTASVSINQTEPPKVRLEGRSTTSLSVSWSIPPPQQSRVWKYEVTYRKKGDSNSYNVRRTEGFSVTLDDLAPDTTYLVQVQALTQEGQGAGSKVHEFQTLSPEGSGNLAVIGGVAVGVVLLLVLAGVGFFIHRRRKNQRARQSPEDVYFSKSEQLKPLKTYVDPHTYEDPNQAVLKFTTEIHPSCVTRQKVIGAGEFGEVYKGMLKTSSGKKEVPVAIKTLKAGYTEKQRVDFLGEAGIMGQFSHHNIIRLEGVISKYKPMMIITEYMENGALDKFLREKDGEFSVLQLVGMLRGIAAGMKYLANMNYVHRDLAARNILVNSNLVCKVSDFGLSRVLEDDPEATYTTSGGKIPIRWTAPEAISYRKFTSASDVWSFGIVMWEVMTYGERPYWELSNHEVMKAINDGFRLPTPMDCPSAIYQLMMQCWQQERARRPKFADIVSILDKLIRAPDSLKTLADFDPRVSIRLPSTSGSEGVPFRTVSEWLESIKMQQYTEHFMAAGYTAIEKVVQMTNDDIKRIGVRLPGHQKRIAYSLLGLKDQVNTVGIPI
UniProt P21860, whole entry: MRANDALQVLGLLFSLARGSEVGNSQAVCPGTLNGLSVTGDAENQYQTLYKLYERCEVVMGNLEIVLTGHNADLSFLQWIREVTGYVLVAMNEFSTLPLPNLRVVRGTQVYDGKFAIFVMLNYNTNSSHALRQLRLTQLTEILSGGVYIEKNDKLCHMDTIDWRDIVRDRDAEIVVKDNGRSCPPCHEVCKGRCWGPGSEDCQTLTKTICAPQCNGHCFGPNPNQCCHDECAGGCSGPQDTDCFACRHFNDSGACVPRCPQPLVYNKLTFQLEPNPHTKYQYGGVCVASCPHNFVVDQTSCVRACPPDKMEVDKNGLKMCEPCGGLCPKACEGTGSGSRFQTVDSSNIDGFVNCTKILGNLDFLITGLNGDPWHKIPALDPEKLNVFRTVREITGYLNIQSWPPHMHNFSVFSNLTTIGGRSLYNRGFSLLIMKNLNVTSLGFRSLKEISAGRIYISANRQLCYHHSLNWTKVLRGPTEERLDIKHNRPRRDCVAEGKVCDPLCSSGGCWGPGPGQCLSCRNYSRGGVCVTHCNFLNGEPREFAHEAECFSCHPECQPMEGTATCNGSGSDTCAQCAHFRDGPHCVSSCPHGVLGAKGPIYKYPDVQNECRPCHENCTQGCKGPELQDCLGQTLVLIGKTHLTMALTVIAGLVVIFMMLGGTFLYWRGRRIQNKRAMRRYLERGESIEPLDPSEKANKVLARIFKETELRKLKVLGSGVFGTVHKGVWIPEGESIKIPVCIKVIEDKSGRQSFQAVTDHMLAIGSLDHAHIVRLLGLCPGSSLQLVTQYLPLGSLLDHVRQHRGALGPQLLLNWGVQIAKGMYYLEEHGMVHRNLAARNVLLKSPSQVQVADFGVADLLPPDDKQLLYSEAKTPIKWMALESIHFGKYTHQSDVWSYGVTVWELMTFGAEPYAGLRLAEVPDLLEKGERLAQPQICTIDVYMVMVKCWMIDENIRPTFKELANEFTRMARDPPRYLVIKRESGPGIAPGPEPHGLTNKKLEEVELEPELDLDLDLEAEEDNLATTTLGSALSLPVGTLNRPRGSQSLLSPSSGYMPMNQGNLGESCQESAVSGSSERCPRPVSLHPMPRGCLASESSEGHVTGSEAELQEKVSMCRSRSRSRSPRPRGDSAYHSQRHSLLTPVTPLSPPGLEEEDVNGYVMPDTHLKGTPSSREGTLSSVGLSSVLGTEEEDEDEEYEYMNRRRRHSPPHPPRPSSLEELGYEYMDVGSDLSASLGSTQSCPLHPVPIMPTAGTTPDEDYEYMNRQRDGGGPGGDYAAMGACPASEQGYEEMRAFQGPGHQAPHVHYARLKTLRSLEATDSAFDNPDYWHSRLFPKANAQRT
UniProt Q15303, whole entry R711C: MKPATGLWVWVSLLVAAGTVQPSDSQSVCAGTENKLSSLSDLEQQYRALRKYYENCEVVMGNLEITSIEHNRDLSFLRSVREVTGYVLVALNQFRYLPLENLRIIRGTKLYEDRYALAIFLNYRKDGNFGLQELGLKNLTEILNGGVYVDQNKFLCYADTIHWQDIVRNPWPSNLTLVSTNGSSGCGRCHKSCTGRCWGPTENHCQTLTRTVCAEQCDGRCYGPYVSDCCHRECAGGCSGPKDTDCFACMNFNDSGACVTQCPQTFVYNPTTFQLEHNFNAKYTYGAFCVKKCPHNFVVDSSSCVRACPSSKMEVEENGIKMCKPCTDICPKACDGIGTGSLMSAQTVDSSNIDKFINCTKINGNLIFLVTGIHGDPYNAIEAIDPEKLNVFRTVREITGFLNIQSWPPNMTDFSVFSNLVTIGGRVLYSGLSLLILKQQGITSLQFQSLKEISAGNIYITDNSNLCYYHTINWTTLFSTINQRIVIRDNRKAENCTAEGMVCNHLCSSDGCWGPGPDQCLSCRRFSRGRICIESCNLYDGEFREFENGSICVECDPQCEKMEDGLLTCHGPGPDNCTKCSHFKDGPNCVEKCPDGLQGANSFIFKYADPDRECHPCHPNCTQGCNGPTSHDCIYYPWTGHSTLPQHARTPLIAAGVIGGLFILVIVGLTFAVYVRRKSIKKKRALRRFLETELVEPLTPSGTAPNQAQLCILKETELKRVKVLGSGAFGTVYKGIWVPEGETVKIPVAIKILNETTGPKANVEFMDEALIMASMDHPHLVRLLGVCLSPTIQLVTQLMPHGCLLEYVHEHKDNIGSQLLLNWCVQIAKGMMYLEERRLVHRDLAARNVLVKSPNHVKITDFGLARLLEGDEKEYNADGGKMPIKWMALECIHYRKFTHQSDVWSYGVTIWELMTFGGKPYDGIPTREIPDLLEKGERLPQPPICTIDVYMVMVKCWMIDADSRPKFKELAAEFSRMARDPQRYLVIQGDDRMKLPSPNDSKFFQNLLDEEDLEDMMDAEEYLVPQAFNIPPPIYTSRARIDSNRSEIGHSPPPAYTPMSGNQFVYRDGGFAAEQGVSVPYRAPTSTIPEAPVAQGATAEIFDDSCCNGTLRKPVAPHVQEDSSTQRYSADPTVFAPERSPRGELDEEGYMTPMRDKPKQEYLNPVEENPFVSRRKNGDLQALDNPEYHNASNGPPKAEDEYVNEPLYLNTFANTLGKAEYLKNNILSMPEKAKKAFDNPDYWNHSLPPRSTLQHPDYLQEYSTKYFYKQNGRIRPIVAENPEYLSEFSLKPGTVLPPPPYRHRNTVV
UniProt P21802, whole entry, looked up: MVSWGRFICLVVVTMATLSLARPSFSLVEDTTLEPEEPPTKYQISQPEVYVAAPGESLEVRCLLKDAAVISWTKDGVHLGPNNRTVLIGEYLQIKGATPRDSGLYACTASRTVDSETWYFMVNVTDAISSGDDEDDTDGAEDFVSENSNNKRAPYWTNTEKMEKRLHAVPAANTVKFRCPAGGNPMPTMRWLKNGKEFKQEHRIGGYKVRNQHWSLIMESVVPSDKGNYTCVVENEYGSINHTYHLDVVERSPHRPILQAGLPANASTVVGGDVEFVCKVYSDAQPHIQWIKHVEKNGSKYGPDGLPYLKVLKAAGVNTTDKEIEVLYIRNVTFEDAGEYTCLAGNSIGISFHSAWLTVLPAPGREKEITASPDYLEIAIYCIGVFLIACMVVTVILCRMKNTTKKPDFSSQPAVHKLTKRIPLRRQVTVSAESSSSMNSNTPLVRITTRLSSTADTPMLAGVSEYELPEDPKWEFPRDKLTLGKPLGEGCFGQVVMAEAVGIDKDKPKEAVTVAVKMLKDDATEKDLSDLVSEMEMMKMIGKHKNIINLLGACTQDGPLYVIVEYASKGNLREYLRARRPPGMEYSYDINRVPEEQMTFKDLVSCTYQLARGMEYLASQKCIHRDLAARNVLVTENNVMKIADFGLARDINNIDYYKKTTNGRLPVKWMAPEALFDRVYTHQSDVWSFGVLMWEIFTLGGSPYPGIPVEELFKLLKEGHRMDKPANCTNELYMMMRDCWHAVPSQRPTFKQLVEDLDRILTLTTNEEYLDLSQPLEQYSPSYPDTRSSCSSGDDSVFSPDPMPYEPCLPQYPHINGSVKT
UniProt P22607, whole entry, looked up: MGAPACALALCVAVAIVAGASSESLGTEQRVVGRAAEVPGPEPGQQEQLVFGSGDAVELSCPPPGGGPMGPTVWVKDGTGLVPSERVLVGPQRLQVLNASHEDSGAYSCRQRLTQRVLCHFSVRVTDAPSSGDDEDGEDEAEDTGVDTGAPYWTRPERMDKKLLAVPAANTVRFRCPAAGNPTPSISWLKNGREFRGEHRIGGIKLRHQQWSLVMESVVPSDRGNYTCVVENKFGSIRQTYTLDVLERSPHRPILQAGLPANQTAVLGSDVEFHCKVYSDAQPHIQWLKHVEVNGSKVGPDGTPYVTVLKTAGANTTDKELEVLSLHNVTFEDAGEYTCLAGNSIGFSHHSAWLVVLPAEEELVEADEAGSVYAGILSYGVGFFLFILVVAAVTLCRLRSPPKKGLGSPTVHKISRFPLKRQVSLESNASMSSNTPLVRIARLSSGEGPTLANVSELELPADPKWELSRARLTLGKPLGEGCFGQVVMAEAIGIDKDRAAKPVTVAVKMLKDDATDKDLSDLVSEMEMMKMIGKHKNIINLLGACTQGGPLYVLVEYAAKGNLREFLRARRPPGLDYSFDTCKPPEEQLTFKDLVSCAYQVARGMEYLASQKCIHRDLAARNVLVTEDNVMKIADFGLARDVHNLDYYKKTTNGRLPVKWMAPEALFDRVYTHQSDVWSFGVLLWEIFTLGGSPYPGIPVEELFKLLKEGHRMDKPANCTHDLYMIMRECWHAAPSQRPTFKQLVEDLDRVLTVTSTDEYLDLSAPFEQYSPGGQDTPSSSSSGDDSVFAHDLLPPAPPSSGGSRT

Columns and labels:
Experiment in all cases: number of time points (of 5) at which kinase-Nluc abundance scored as decreased, DMSO-normalised (count); higher = more persistent destabilization
Conditions in all cases: K562; 2-18 h
[1] = molecular target: CSNK1A1 (UniProt P48729)
[2] = molecular target: CSNK1D (UniProt P48730)
[3] = molecular target: DDR1 (UniProt Q08345)
[4] = molecular target: DYRK1B (UniProt Q9Y463)
[5] = molecular target: DYRK2 (UniProt Q92630)
[6] = molecular target: EGFR (UniProt P00533)
[7] = molecular target: EGFR_G719S (UniProt P00533)
[8] = molecular target: EGFR_G719S_T790M (UniProt P00533)
[9] = molecular target: EGFR_L718V (UniProt P00533)
[10] = molecular target: EGFR_L858R (UniProt P00533)
[11] = molecular target: EGFR_L861Q (UniProt P00533)
[12] = molecular target: EGFR_T790M (UniProt P00533)
[13] = molecular target: EPHA2 (UniProt P29317)
[14] = molecular target: ERBB3 (UniProt P21860)
[15] = molecular target: ERBB4_R711C (clone: ERBB4_mut) (UniProt Q15303)
[16] = molecular target: ERN1 (UniProt O75460)
[17] = molecular target: FGFR1 (UniProt P11362)
[18] = molecular target: FGFR2 (UniProt P21802)
[19] = molecular target: FGFR3 (UniProt P22607)
[20] = molecular target: FGR (UniProt P09769)

Measured: number of time points

CN1C(=O)[C@@H](NC(=O)c2cc(Cc3ccccc3)on2)COc2ccccc21 (10 µM)
0: all assays above

C[C@@H]1COC(Nc2ccc3ncnc(Nc4ccc(OCc5nccs5)c(Cl)c4)c3c2)=N1 [Varlitinib] (10 µM)
1: [4]
0: all other assays above

O=c1c(O)c(-c2ccc(O)c(O)c2)oc2cc(O)c(O)c(O)c12 [Quercetagetin] (10 µM)
0: all assays above

Cc1cnc(Nc2ccc(F)cc2Cl)nc1-c1c[nH]c(C(=O)N[C@H](CO)c2cccc(Cl)c2)c1 (10 µM)
0: all assays above

CN(C)CCn1cc2cc(NC(=O)c3cccc(C(F)(F)F)n3)c(C(C)(C)O)cc2n1 (10 µM)
0: all assays above

CCCS(=O)(=O)N[C@H]1C[C@@H](N(C)c2ncnc3[nH]ccc23)C1 [Abrocitinib] (10 µM)
0: all assays above

Cc1nn(CC(F)(F)F)cc1Nc1ncc(Br)c(NCc2ccc(S(N)(=O)=O)cc2)n1 (10 µM)
0: all assays above

CN1C(=O)N[C@@H](Cc2c[nH]c3c(Cl)cccc23)C1=O [Necrostatin 2 (S enantiomer)] (10 µM)
0: all assays above

CC(C)n1cnc2c(Nc3cccc(Cl)c3)nc(N[C@H]3CCCC[C@@H]3N)nc21 (2.5 µM)
0: all assays above

O=C1NC(=O)C(Cc2c[nH]c3c(Cl)cccc23)N1 (stereo not given) [Necroptosis-IN-1] (10 µM)
0: all assays above

COc1ccc(Cl)cc1N(CC(=O)Nc1ccc2c(c1)OCO2)S(=O)(=O)c1ccccc1 (2.5 µM)
0: all assays above

CO[C@]1(C(=O)N[C@@H](C)c2ccc(-n3cc(F)cn3)nc2)CC[C@H](c2nc(C)cc(Nc3cc(C)[nH]n3)n2)CC1 [Pralsetinib] (10 µM)
3: [5]
1: [15]
5: [3]
0: all other assays above

Cc1nc(NC(=O)N2CCC[C@H]2C(N)=O)sc1-c1ccnc(C(C)(C)C(F)(F)F)c1 [Alpelisib] (2.5 µM)
0: all assays above

Nc1ccc(-c2nc3ccc(-c4nc5ccc(N)cc5[nH]4)cc3[nH]2)cc1 (10 µM)
0: all assays above

Cc1n[nH]c2ncc(C(=O)N3CCC[C@H]3c3ccc(Cl)cc3)cc12 (10 µM)
0: all assays above

Cc1ncc(-c2cc(F)c(O)c(F)c2)cc1-c1cc(F)c(O)c(F)c1 (10 µM)
0: all assays above

NC(=O)c1c(NC(=O)C2CC2)sc2c1CCCC2 (10 µM)
0: all assays above

CCn1c(N)c(C(=O)NC)c(=O)c2ccc(C#CC(C)(O)COC)nc21 (stereo not given) (10 µM)
0: all assays above

O=C1C=CC2=C3c4cc(O)c(O)cc4CC3(O)COC2=C1O (stereo not given) [Hematein] (10 µM)
0: all assays above

COc1cc2nc(-c3cc(F)ccc3O)nc(N[C@@H]3CNC[C@H]3C(C)(C)O)c2cc1OC (2.5 µM)
0: all assays above

CN(C)c1ccc(/C=C2\C(=O)Nc3ccccc32)c2ccccc12 (10 µM)
2: [13]
0: all other assays above

CCOC(=O)c1c(C)[nH]c(C=C2C(=O)Nc3ccccc32)c1C (10 µM)
0: all assays above

Quoted from the results shown, 2 compounds:
CN(C)c1ccc(/C=C2\C(=O)Nc3ccccc32)c2ccccc12 (10 µM)
2: [13]
0: all other assays above

CCOC(=O)c1c(C)[nH]c(C=C2C(=O)Nc3ccccc32)c1C (10 µM)
0: all assays above

(continued)

CCNC(=O)Nc1ccc(-c2nc3c(c(N4CCOC[C@@H]4C)n2)CCN(C2COC2)C3)cc1 (2.5 µM)
1: [15]
5: [3]
0: all other assays above

CNCCOc1ccccc1C1(Nc2nccn(-c3cc(C(=O)NC4CC4)cc(F)c3C)c2=O)CC1 (10 µM)
0: all assays above
